Laboratory results published in paper PMC10193966, “Structure of WNT inhibitor adenomatosis polyposis coli down-regulated 1 (APCDD1), a cell-surface lipid-binding protein” (Proceedings of the National Academy of Sciences of the …, 2023).
Results are given in words; binding and its absence hold for the method and conditions named. Some results given as binding are weak or reduced against the parent protein; the word gives no strength. Where a sequence is shown, tags or fusion partners need not be part of it.

Sequences of proteins named here, by UniProt entry; tags and fusion partners are left off. Residues count along the entry.
UniProt Q3U128, residues 27-492: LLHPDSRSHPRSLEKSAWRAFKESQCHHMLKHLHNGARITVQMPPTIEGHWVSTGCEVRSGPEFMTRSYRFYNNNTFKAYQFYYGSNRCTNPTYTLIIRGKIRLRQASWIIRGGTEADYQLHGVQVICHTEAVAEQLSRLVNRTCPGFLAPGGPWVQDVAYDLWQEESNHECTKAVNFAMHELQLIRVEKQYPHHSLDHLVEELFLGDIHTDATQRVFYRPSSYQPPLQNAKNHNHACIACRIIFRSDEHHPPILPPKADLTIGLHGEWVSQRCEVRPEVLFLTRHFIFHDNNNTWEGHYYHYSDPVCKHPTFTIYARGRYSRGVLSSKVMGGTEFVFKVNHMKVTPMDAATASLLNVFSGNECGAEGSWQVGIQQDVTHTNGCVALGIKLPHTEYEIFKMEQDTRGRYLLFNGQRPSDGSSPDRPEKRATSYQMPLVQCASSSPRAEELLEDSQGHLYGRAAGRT

Target: APCDD1-mVenus fusion with a biotinylated C-terminal Avi tag (APCDD1-mV-Avi) (mouse) (UniProt Q3U128)
Test: AP-based binding assay (plate capture of a co-expressed complex); WNT7A co-expressed with the biotinylated bait in HEK293T; secreted complexes concentrated by IMAC, immobilised on streptavidin-coated wells at 4 °C overnight; captured WNT7A detected with anti-ALFA nanobody-AP and a colorimetric AP reaction; wash buffer 10 mM HEPES pH 7.5, 0.15 M NaCl, 0.05% Tween-20; also run with 1% DDM, 0.1% DDM or 2.25% Triton X-114 in all steps

binding: binds
B1: ALFA epitope-tagged WNT7A (ligand, UniProt O00755 32-349)
chain: LGASIICNKIPGLAPRQRAICQSRPDAIIVIGEGSQMGLDECQFQFRNGRWNCSALGERTVFGKELKVGSREAAFTYAIIAAGVAHAITAACTQGNLSDCGCDKEKQGQYHRDEGWKWGGCSADIRYGIGFAKVFVDAREIKQNARTLMNLHNNEAGRKILEENMKLECKCHGVSGSCTTKTCWTTLPQFRELGYVLKDKYNEAVHVEPVRASRNKRPTFLKIKKPLSYRKPMDTDLVYIEKSPNYCEEDPVTGSVGTQGRACNKTAPQASGCDLMCCGRGYNTHQYARVWQCNCKFHWCCYVKCNTCSERTEMYTCK
modifications: covalently linked palmitoleate (PAM)
